Structures can show the parent of a compound that is named as a salt. Some of the results follow. Single values are uncertain here, since repeats match poorly.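 Screen of FDA-approved drugs, each combined with colistin at one-eighth of its MIC, against a multidrug-resistant mcr-1-positive clinical E. coli isolate; growth read as OD600 after 24 h. Bacteria without drug were the growth control and plain broth the blank. A combination counted as active when OD600 fell below 0.2.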
system: Escherichia coli 42 (mcr-1-positive clinical isolate); test: OD600 after 24 h growth with compound plus colistin (absorbance units (OD600)); higher = more bacterial growth (less inhibition); conditions: first compound 25 µM; colistin concentration 0.5 ug/mL; incubation time 24 h; 37 °C

Row | Compound | OD600
1 | Nc1ccn([C@@H]2O[C@H](CO)[C@@H](O)C2(F)F)c(=O)n1 [Gemcitabine] + CCC(C)CCCC(=O)N[C@@H](CCN)C(=O)N[C@H](C(=O)N[C@@H](CCN)C(=O)N[C@H]1CCNC(=O)[C@H]([C@@H](C)O)NC(=O)[C@H](CCN)NC(=O)[C@H](CCN)NC(=O)[C@H](CC(C)C)NC(=O)[C@@H](CC(C)C)NC(=O)[C@H](CCN)NC1=O)[C@@H](C)O [colistin] | inactive: 1.25
2 | COCCc1ccc(OCC(O)CNC(C)C)cc1 (stereo not drawn) [Metoprolol tartrate] + CCC(C)CCCC(=O)N[C@@H](CCN)C(=O)N[C@H](C(=O)N[C@@H](CCN)C(=O)N[C@H]1CCNC(=O)[C@H]([C@@H](C)O)NC(=O)[C@H](CCN)NC(=O)[C@H](CCN)NC(=O)[C@H](CC(C)C)NC(=O)[C@@H](CC(C)C)NC(=O)[C@H](CCN)NC1=O)[C@@H](C)O [colistin] | inactive: 0.976
3 | CCc1ccc(CCOc2ccc(CC3SC(=O)NC3=O)cc2)nc1 (stereo not drawn) [Pioglitazone] + CCC(C)CCCC(=O)N[C@@H](CCN)C(=O)N[C@H](C(=O)N[C@@H](CCN)C(=O)N[C@H]1CCNC(=O)[C@H]([C@@H](C)O)NC(=O)[C@H](CCN)NC(=O)[C@H](CCN)NC(=O)[C@H](CC(C)C)NC(=O)[C@@H](CC(C)C)NC(=O)[C@H](CCN)NC1=O)[C@@H](C)O [colistin] | inactive: 1.06
